# Experimental data as given in PubChem BioAssay (NCATS).
# Inconclusive means that the source gave no clear call. Such entries were picked first, then a sample of the others. For part of these data: Where the call is inconclusive, the potency comes from a doubtful curve fit. Active and inactive are the calls of the source. Calls come from the whole dose curve; as a rule, active = well fitted curve in the direction sought with a large enough effect; inconclusive = small, poorly fitted or top-dose-only effect, or another doubt; inactive = no such curve, though single readings can be large; an effect the other way counts as inactive or inconclusive.
# Assays:
# [1] = Quantitative High-Throughput drug screen in 47 multiple myeloma cell lines against the NCATS MIPE library collection: KMS20_JCRB cell viability assay (AID 1918973); conditions: CellTiter-Glo ATP, 48 h; viability (% of DMSO): at 45.8 µM (top of the series); note: nearly all actives have a fitted effect of over 45% in size; note: potency is the fitted concentration of half-maximal effect
# Outline: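 Myeloma cells (500 per well) were exposed to MIPE 4.0 compounds by pin transfer and incubated 48 hours at 37C, 5% CO2. Viability was read as ATP by CellTiter-Glo luminescence, normalised to DMSO (100%) and media-only (0%) wells.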
# [2] = Quantitative High-Throughput drug screen in 47 multiple myeloma cell lines against the NCATS MIPE library collection: KMS26_JCRB cell viability assay (AID 1918975); conditions: KMS26 myeloma cells viability, CellTiter-Glo ATP, 48 h; viability (% of DMSO): at 45.8 µM (top of the series); note: nearly all actives have a fitted effect of over 45% in size; note: potency is the fitted concentration of half-maximal effect
# Outline: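 Myeloma cell lines, 500 cells per well, exposed to MIPE 4.0 library compounds for 48 h at 37C, 5% CO2. Viability from ATP by CellTiter-Glo luminescence; normalised to DMSO (100%) and media-only (0%) wells.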
# [3] = Quantitative High-Throughput drug screen in 47 multiple myeloma cell lines against the NCATS MIPE library collection: MMM1_PLB cell viability assay (AID 1918976); note: potency is the fitted concentration of half-maximal effect; nearly all actives have a fitted effect of over 35% in size
# Outline: (§1)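 ATP-based luminescence (CellTiter-Glo, 5 min RT incubation) quantified surviving cells following two days' treatment with MIPE 4.0 agents at 37 °C, 5% CO2.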
# [4] = Quantitative High-Throughput drug screen in 47 multiple myeloma cell lines against the NCATS MIPE library collection: MOLP8_DSMZ cell viability assay (AID 1918977); conditions: MOLP8 myeloma viability, CellTiter-Glo ATP luminescence, 48 h; viability (% of control): at 45.8 µM (top of the series); note: nearly all actives have a fitted effect of over 45% in size; note: potency is the fitted concentration of half-maximal effect
# Outline: as §1
# [5] = Quantitative High-Throughput drug screen in 47 multiple myeloma cell lines against the NCATS MIPE library collection: MM1S_ATCC cell viability assay (AID 1918980); note: potency is the fitted concentration of half-maximal effect; nearly all actives have a fitted effect of over 45% in size
# Outline: as §1
# [6] = Quantitative High-Throughput drug screen in 47 multiple myeloma cell lines against the NCATS MIPE library collection: L363_DSMZ cell viability assay (AID 1918984); conditions: L363 myeloma viability, CellTiter-Glo ATP luminescence, 48 h; viability (% of control): at 45.8 µM (top of the series); note: nearly all actives have a fitted effect of over 40% in size; note: potency is the fitted concentration of half-maximal effect
# Outline: as §1
# [7] = Quantitative High-Throughput drug screen in 47 multiple myeloma cell lines against the NCATS MIPE library collection: KMS34_JCRB cell viability assay (AID 1918985); conditions: KMS34 myeloma viability, CellTiter-Glo ATP luminescence, 48 h; viability, percent of control: at 45.8 µM (top of the series); note: nearly all actives have a fitted effect of over 40% in size; note: potency is the fitted concentration of half-maximal effect
# Outline: as §1
# [8] = Quantitative High-Throughput drug screen in 47 multiple myeloma cell lines against the NCATS MIPE library collection: OCIMY7_PLB cell viability assay (AID 1918987); conditions: OCI-MY7 myeloma viability, CellTiter-Glo ATP, 48 h; viability (% of DMSO): at 45.8 µM (top of the series); note: nearly all actives have a fitted effect of over 65% in size; note: potency is the fitted concentration of half-maximal effect
# Outline: as §1
# [9] = Quantitative High-Throughput drug screen in 47 multiple myeloma cell lines against the NCATS MIPE library collection: OCIMY5_PLB cell viability assay (AID 1918988); conditions: OCI-MY5 myeloma viability, ATP luminescence, 48 h; viability, % of control: at 45.8 µM (top of the series); note: nearly all actives have a fitted effect of over 65% in size; note: potency is the fitted concentration of half-maximal effect;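 for viability, % of control: 100% = DMSO-treated wells and 0% = wells with media alone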
# Outline: as §1
# [10] = Quantitative High-Throughput drug screen in 47 multiple myeloma cell lines against the NCATS MIPE library collection: OPM1_PLB cell viability assay (AID 1918989); note: nearly all actives have a fitted effect of over 40% in size; note: potency is the fitted concentration of half-maximal effect
# Outline: as §1
# [11] = Quantitative High-Throughput drug screen in 47 multiple myeloma cell lines against the NCATS MIPE library collection: SKMM1_PLB cell viability assay (AID 1919863); conditions: SKMM1 myeloma viability, CellTiter-Glo ATP, 48 h; viability: hits give low values; note: nearly all actives have a fitted effect of over 35% in size; note: potency is the fitted concentration of half-maximal effect
# Outline: as §1
# [12] = Quantitative High-Throughput drug screen in 47 multiple myeloma cell lines against the NCATS MIPE library collection: U266_ATCC cell viability assay (AID 1919864); conditions: U266 myeloma viability, CellTiter-Glo ATP luminescence, 48 h; viability (% of DMSO control): at 45.8 µM (top of the series); note: nearly all actives have a fitted effect of over 35% in size; note: potency is the fitted concentration of half-maximal effect
# Outline: as §1
# [13] = Quantitative High-Throughput drug screen in 47 multiple myeloma cell lines against the NCATS MIPE library collection: XG6_PLB cell viability assay (AID 1919865); conditions: XG6 myeloma viability, CellTiter-Glo ATP luminescence, 48 h; viability (% of control): at 45.8 µM (top of the series); note: nearly all actives have a fitted effect of over 40% in size; note: potency is the fitted concentration of half-maximal effect
# Outline: as §1
# [14] = Quantitative High-Throughput drug screen in 47 multiple myeloma cell lines against the NCATS MIPE library collection: XG1_PLB cell viability assay (AID 1919866); conditions: CellTiter-Glo ATP, 48 h; viability: at 45.8 µM (top of the series); note: nearly all actives have a fitted effect of over 35% in size; note: potency is the fitted concentration of half-maximal effect
# Outline: as §1
# [15] = Quantitative High-Throughput drug screen in 47 multiple myeloma cell lines against the NCATS MIPE library collection: OCIMY1_PLB cell viability assay (AID 1918979); conditions: OCI-MY1 myeloma viability, CellTiter-Glo ATP, 48 h; viability: at 45.8 µM (top of the series) unless noted; note: nearly all actives have a fitted effect of over 35% in size; note: potency is the fitted concentration of half-maximal effect
# Outline: as §1
# [16] = Quantitative High-Throughput drug screen in 47 multiple myeloma cell lines against the NCATS MIPE library collection: MM1R_ATCC cell viability assay (AID 1918981)
# Outline: as §1
# [17] = Quantitative High-Throughput drug screen in 47 multiple myeloma cell lines against the NCATS MIPE library collection: LP1_DSMZ cell viability assay (AID 1918982); conditions: LP1 myeloma viability, CellTiter-Glo ATP luminescence, 48 h; viability (% of control): at 45.8 µM (top of the series)
# Outline: as §1
# [18] = Quantitative High-Throughput drug screen in 47 multiple myeloma cell lines against the NCATS MIPE library collection: KMS28PE_JCRB cell viability assay (AID 1918983); note: nearly all actives have a fitted effect of over 35% in size; note: potency is the fitted concentration of half-maximal effect
# Outline: as §1
# [19] = Quantitative High-Throughput drug screen in 47 multiple myeloma cell lines against the NCATS MIPE library collection: NCIH929_DSMZ cell viability assay (AID 1918978); note: nearly all actives have a fitted effect of over 35% in size
# Outline: as §1
SMILES,Potency [1],Potency [2],Potency [3],Potency [4],Potency [5],Potency [6],Potency [7],Potency [8],Potency [9],Potency [10],viability [11],Potency [12],Potency [13],Potency [14],Potency [15],Potency [16],Potency [17],Potency [18],Potency [11],Potency [19]
CC1=C(C(=O)O)N2C(=O)[C@@H](NC(=O)C(N)c3ccccc3)[C@H]2SC1 (some centres not stated),inactive,"inconclusive: 0.0296 µM [cytotoxic, full curve, poor fit]","inconclusive: 0.059 µM [rising, full curve]","inconclusive: 9.35 µM [rising, partial curve, poor fit]","inconclusive: 0.0059 µM [rising, full curve, poor fit]","inconclusive: 0.003 µM [rising, full curve, poor fit]","inconclusive: 8.33 µM [rising, single point]","inconclusive: 0.469 µM [cytotoxic, partial curve, poor fit]","inconclusive: 11.8 µM [rising, single point]",inactive,inactive: 130%,"inconclusive: 0.0148 µM [rising, full curve, poor fit]",inactive,"inconclusive: 0.0026 µM [rising, full curve, poor fit]",–,–,–,–,–,–
CC1=C(C(=O)Nc2cc3cn[nH]c3cc2F)C(c2ccc(C(F)(F)F)cc2)CC(=O)N1 (configuration not stated),inactive,inactive,"inconclusive: 0.0021 µM [rising, full curve, poor fit]",inactive,"inconclusive: 0.0118 µM [rising, full curve, poor fit]",inactive,inactive,"inconclusive: 14.8 µM [cytotoxic, partial curve, poor fit]",inactive,inactive,inactive: 160%,inactive,inactive,"inconclusive: 26.4 µM [cytotoxic, single point]",inactive,–,–,–,–,–
C[C@H](c1ccc(F)cc1CCCC(=O)O)N(c1cc(F)ccc1F)S(=O)(=O)c1ccc(Cl)cc1,"inconclusive: 16.6 µM [cytotoxic, partial curve, poor fit]",active: 0.743 µM,"inconclusive: 5.9 µM [cytotoxic, partial curve, poor fit]","inconclusive: 1.32 µM [cytotoxic, partial curve, poor fit]",–,"inconclusive: 4.69 µM [cytotoxic, partial curve, poor fit]","inconclusive: 23.5 µM [cytotoxic, partial curve, poor fit]",–,active: 14.8 µM,"inconclusive: 23.5 µM [cytotoxic, single point]",–,"inconclusive: 14.8 µM [cytotoxic, partial curve, poor fit]",active: 2.64 µM,"inconclusive: 16.6 µM [cytotoxic, partial curve]",inactive,"inconclusive: 8.33 µM [cytotoxic, full curve, poor fit]","inconclusive: 9.35 µM [cytotoxic, partial curve, poor fit]","inconclusive: 2.96 µM [cytotoxic, partial curve, poor fit]","inconclusive: 0.0209 µM [cytotoxic, full curve, poor fit]",–
Nc1nc(N)nc(-c2cc(Cl)ccc2Cl)n1,"inconclusive: 0.003 µM [rising, full curve, poor fit]","inconclusive: 0.0019 µM [rising, full curve, poor fit]",active: 0.0526 µM,inactive,"inconclusive: 29.6 µM [cytotoxic, single point]",inactive,–,"inconclusive: 6.62 µM [rising, partial curve, poor fit]",–,–,inactive: 131%,inactive,"inconclusive: 16.6 µM [cytotoxic, partial curve, poor fit]",–,inactive,–,–,inactive,–,–
c1ccc(CNc2nc(N3CCOc4ccccc43)nc3c2CCCC3)cc1,"inconclusive: 16.6 µM [cytotoxic, partial curve, poor fit]","inconclusive: 0.0047 µM [cytotoxic, full curve, poor fit]","inconclusive: 33.2 µM [cytotoxic, single point]",inactive,inconclusive: 0.001 µM,inactive,"inconclusive: 23.5 µM [cytotoxic, single point]",inactive,"inconclusive: 37.2 µM [cytotoxic, partial curve, poor fit]",–,–,–,inactive,inactive,"inconclusive: 0.0093 µM [rising, full curve, poor fit]",–,–,inactive,"inconclusive: 18.7 µM [cytotoxic, partial curve, poor fit]",inactive
